# Source: PubChem BioAssay AID504467 (National Center for Advancing Translational Sciences (NCATS), 2011)
# The whole screen tested about 330,000 compounds, of which about 7,700 (2.3%) were called active. The shares of active, inactive and inconclusive entries below differ from those in the screen. Calls come from the whole dose curve; as a rule, active = well fitted inhibition curve with a large enough effect; inconclusive = small, poorly fitted or top-dose-only effect, or effect the other way; inactive = flat fitted curve, though single readings scatter. A potency beside an inconclusive call is a rough fit, not a confirmed value.
# Test: qHTS screen for small molecules that inhibit ELG1-dependent DNA repair in human embryonic kidney (HEK293T) cells expressing luciferase-tagged ELG1; note: nearly all actives have a fitted effect of over 55% in size
# Details: HEK293T ELG1-luciferase reporter, luminescence, 16 h, DNA damage induced by 5-fluorouridine; activity change, negative = inhibition: at 46.1 µM (top of the series)
# How it was run: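 Overnight (16 hr) co-exposure of 2,000 cells/well to 5-fluorouridine and compound at 37 °C preceded detection. Luciferase was quantified via ONE-Glo luminescence; loss of signal denotes inhibition.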
# % is set by controls: 0 for no effect and ±100 for the full control effect; potency is the fitted concentration of half-maximal effect.
SMILES,"activity change, negative = inhibition",Potency
CCOc1cc(CNCc2cc(OC)cc(OC)c2)ccc1OC,inactive: 0.2%,
CCOC(=O)C1=C(C)NC(SCC(=O)O)=C(C#N)C1c1ccco1 (stereo not given),inactive: -3.09%,
CCOC(=O)c1nnc2cc(-c3ccccc3)nn2c1C,,"inconclusive: 18.4 µM [activator, partial curve]"
Cn1c(SCC(=O)NNC(=O)c2ccc(Cl)cc2)nnc1-c1cccnc1,inactive: 17.8%,
CC(C)Cn1c(SC(C)C(=O)NC2CC2)nnc1-c1ccccc1F (stereo not given),inactive: 26.5%,
CN(C)S(=O)(=O)c1ccc(NC(=O)CSc2nc3ccccc3n2-c2ccccc2)cc1,,"inconclusive: 20.6 µM [inhibitor, partial curve]"
COc1ccccc1C(=O)Nc1nnc(SCC(=O)NCc2ccco2)s1,,"inconclusive: 2.31 µM [activator, partial curve]"
COC(=O)Nc1sc2c(c1C(N)=O)CCCCCC2,inactive: -9.31%,
COc1cccc(-n2c(SCC(=O)NC3CCCCC3)nc3n[nH]c(C)c3c2=N)c1,,"inconclusive: 7.31 µM [inhibitor, partial curve]"
COc1cc2cc(CN(Cc3nnnn3Cc3ccccc3)CC3CCCO3)c(=O)[nH]c2cc1OC (stereo not given),,"inconclusive: 11.6 µM [inhibitor, partial curve]"
C[C@H](CO)N1C[C@H](C)[C@@H](CN(C)S(=O)(=O)c2ccc(F)cc2)Oc2ccc(NC(=O)Cc3ccccc3)cc2C1=O,inactive: -11.3%,
Clc1nssc1=Nc1ccc(Br)cc1,,"inconclusive: 23.1 µM [inhibitor, single point]"
COc1ccc(Cl)cc1-c1nc(SCC(=O)NC2CC2)n[nH]1,,"inconclusive: 8.2 µM [activator, partial curve, poor fit]"
Cc1cc(N2CCCC2=O)ccc1S(=O)(=O)Nc1c(C)nn(C)c1C,,"inconclusive: 7.3 µM [inhibitor, partial curve, poor fit]"
COc1ccc2oc(C)c(NC(C)=O)c2c1,inactive: 0.987%,
O=C(Cn1nnc2ccccc21)N/N=C\c1cccs1,,"inconclusive: 23.1 µM [activator, partial curve, poor fit]"
CCOC(=O)N/N=C/c1cc(C)n(-c2ccccc2)c1C,,"inconclusive: 20.6 µM [activator, partial curve]"
Cc1cc(=O)oc2cc(OCC3CC(c4ccc(N(C)C)cc4)=NO3)ccc12 (stereo not given),inactive: 17.5%,
O=C(Nc1ccc(Br)cc1)c1cccc(S(=O)(=O)Nc2cnc3ccccc3c2)c1,,"inconclusive: 23.1 µM [inhibitor, partial curve, poor fit]"
FC(F)(F)COc1ccc(-c2nnc(SCc3ccccc3)o2)cn1,,"inconclusive: 6.51 µM [activator, partial curve, poor fit]"
COCCSc1nnc(NC(=O)Cc2ccc(OC)c(OC)c2)s1,,"inconclusive: 29.1 µM [inhibitor, partial curve, poor fit]"
COCCN(Cc1nnc(-c2cccs2)o1)C(=O)CN1C(=O)NC2(CCCCC2)C1=O,inactive: -2.63%,
O=C(NC1(Cc2ccccc2)CCN(Cc2ccc(-c3ccccc3)cc2)C1=O)c1ccccc1 (stereo not given),,"inconclusive: 20.6 µM [inhibitor, partial curve, poor fit]"
O=C(Nc1ccc(F)cc1F)c1cc2n(n1)C(C(F)(F)F)C1CCCCC1N2 (stereo not given),,"inconclusive: 10.3 µM [activator, partial curve]"

# In another format: entries from further up
SMILES | activity change, negative = inhibition | Potency
CCOc1cc(CNCc2cc(OC)cc(OC)c2)ccc1OC | inactive: 0.2% | 
COC(=O)Nc1sc2c(c1C(N)=O)CCCCCC2 | inactive: -9.31% | 

# More entries.

SMILES,"activity change, negative = inhibition",Potency
CC(C)COC(=O)c1cccc2c1-c1ccccc1/C2=N\O,,"inconclusive: 29.1 µM [inhibitor, partial curve, poor fit]"
Cc1ccc(NC(=O)CCl)cc1S(=O)(=O)N1CCCCCC1,,"inconclusive: 1.16 µM [activator, partial curve, poor fit]"
CC1CCN(C(=O)COC(=O)c2cc(=O)[nH]c3ccccc23)CC1,,"inconclusive: 13 µM [activator, partial curve]"
COc1ccc(C2=NS(=O)(=O)N(C)C(C(=O)NCc3ccccn3)=C2)cc1OC,inactive: 2.42%,
O=C(Nc1ccccc1)c1ccc(-c2ccccc2C(F)(F)F)o1,,"inconclusive: 18.4 µM [activator, partial curve]"
COCCn1c(SCC(=O)N(C)c2ccccc2)nc2c([nH]c3ccccc32)c1=O,,"inconclusive: 6.51 µM [inhibitor, single point]"
CCCc1nc2oc3ccccc3c(=O)c2c(=O)n1-c1ccccc1,,"inconclusive: 13 µM [activator, partial curve]"
Cc1cc(C)nc(NC(=O)/C=C/c2ccccc2Cl)n1,,"inconclusive: 11.6 µM [activator, partial curve]"
COc1ccc2nc(SC(C)C(=O)NCC(=O)Nc3ccc(F)c(F)c3F)[nH]c2c1 (stereo not given),inactive: 8.05%,
COc1ccc2cc(-c3csc(-c4cccnc4)n3)ccc2c1,,"inconclusive: 14.6 µM [activator, partial curve]"
Cc1ccc(CN2CCC(c3cc(-c4ccc(Cl)cc4)n[nH]3)CC2)cc1,,"inconclusive: 29.1 µM [inhibitor, single point]"
O=C(C[C@H]1C/C=C\CC[C@H](Cc2ccc(F)cc2)C(=O)O[C@H](c2ccccc2)CNC1=O)N[C@H](CO)Cc1ccccc1,,active: 10.3 µM
CN(C(=O)CSc1ncnc2sc(-c3ccccc3)cc12)C1CCS(=O)(=O)C1 (stereo not given),,"inconclusive: 20.6 µM [inhibitor, single point]"
Cc1ccc(C2=NC(C)(C)NC2=O)cc1,inactive: 7.85%,
CN1CCC2(CC1)Nc1nc(SCc3ccc(Cl)cc3)nn1C1=C2CN(C)CC1,inactive: 5.74%,
CCOC(=O)N1CCC(Nc2cccc(SC)c2)CC1,,"inconclusive: 17.8 µM [inhibitor, single point]"
CCC/C(O)=C1\C(=O)CC(c2ccccc2)CC1=NCCc1c(C)[nH]c2ccccc12 (stereo not given),,"inconclusive: 20.6 µM [inhibitor, partial curve]"
CCN(CC(=O)Nc1c(F)cccc1F)C(=O)C1COc2ccccc2O1 (stereo not given),inactive: -1.94%,
C=CCn1c(SCC(=O)c2ccc(Cl)s2)nc2ccccc2c1=O,inactive: -5.77%,
O=C(CSC1=NC2(CCCCCC2)N=C1c1ccccc1)Nc1ccc2c(c1)OCCO2,,"inconclusive: 29.1 µM [inhibitor, single point]"
CN1CCN(S(=O)(=O)c2ccc(C(=O)Nc3ccccc3)cc2)CC1,,"inconclusive: 18.4 µM [activator, single point]"
O=C(Nc1ccc2c(c1)OCO2)c1noc2c1CCCCC2,,"inconclusive: 1.84 µM [activator, full curve]"
Cc1ccc(NC(=O)C2OCCc3ccccc32)cc1 (stereo not given),,"inconclusive: 20.6 µM [activator, partial curve]"
O=C(CSc1ccc2ccccc2n1)c1ccccc1,,"inconclusive: 23.1 µM [activator, partial curve]"

# 2 records picked at random from the list so far, as already listed:
SMILES,"activity change, negative = inhibition",Potency
COc1ccc2nc(SC(C)C(=O)NCC(=O)Nc3ccc(F)c(F)c3F)[nH]c2c1 (stereo not given),inactive: 8.05%,
O=C(Nc1ccccc1)c1ccc(-c2ccccc2C(F)(F)F)o1,,"inconclusive: 18.4 µM [activator, partial curve]"

# (cont.)

SMILES,"activity change, negative = inhibition",Potency
COc1ccc(NC(=O)N2CCCC(C(=O)NC(C)C)C2)cc1 (stereo not given),,"inconclusive: 6.51 µM [inhibitor, single point]"
CC(=O)CSc1nnc(-c2ccncc2)n1C,,"inconclusive: 20.6 µM [activator, partial curve, poor fit]"
CSc1cccc(N2CC(C(=O)Nc3cccc(S(=O)(=O)N4CCCC4)c3)CC2=O)c1 (stereo not given),,"inconclusive: 16.4 µM [inhibitor, single point]"
Cn1c(=O)[nH]c(=O)c2c1nc(Br)n2CC(O)COc1ccc(Cl)cc1 (stereo not given),inactive: -17.2%,
CCN1C(=O)C(CC(=O)Nc2ccc(OC)cc2)N(CCCN2CCN(c3ccc(OC)cc3)CC2)C1=S (stereo not given),,"inconclusive: 20.6 µM [inhibitor, single point]"
CCOc1ccc(Br)cc1C(=O)N/N=C/c1ccccn1,,active: 11.6 µM
O=c1oc2ccccc2cc1-c1csc(Nc2nc3c(F)cccc3s2)n1,,"inconclusive: 6.51 µM [inhibitor, single point]"
O=S(=O)(NCC1CN(S(=O)(=O)c2ccc3c(c2)OCCO3)C1)c1c(F)cccc1F,inactive: 19.5%,
COc1ccc(/C=C2\SC(=O)N(CCc3nnc(N)s3)C2=O)cc1,,"inconclusive: 3.26 µM [activator, partial curve]"
COc1cc(/C=C2\C(=O)N(C)C(=S)N2C)ccc1O,,"inconclusive: 23.1 µM [activator, single point]"
O=C(COc1ccc(S(=O)(=O)N2CCOCC2)cc1Cl)NCC1CCCO1 (stereo not given),inactive: -2.31%,
O=C(CSc1ccccc1)NCCc1ccccc1,,"inconclusive: 4.61 µM [activator, partial curve, poor fit]"
Cc1ccc2oc(C(=O)N3CCCCCC3)c(C)c2c1,,"inconclusive: 16.4 µM [activator, partial curve]"
CCCCn1c(SCC(=O)N2CCCC2=O)nc2cc(S(N)(=O)=O)ccc21,,"inconclusive: 13 µM [activator, partial curve, poor fit]"
COc1cccc(CN2CCC(CO)(CC3CCCCO3)CC2)c1 (stereo not given),inactive: 4.56%,
Oc1ccc(-c2nccc(-c3ccc(F)cc3)n2)cc1,,"inconclusive: 16.4 µM [activator, partial curve]"
O=C(NC1CCCC1)c1cc(S(=O)(=O)N2CCOCC2)c(Cl)cc1Cl,inactive: -19.2%,
Cc1ccc(-c2csc(N=C(N)N)n2)cc1,,"inconclusive: 9.2 µM [activator, partial curve]"
CCn1c(CC(=O)Nc2ccccc2C)nnc1SCC(=O)Nc1nncs1,inactive: 13.4%,
O=C(c1cccc2ccccc12)C1CCCN(C(=O)C2CCOCC2)C1 (stereo not given),inactive: 16.7%,
COc1ccc(CNC(=O)C2CCN(C(=O)c3csc(Nc4ccc(C)cc4)n3)CC2)cc1,,"inconclusive: 20.6 µM [inhibitor, single point]"
Cc1nnc(N/N=C/c2c[nH]c3ccccc23)[nH]c1=O,inactive: 16.7%,
